Measured values as given in the supplement of paper PMC10849652.
Some of the results follow.

The chains behind the UniProt entries cited, without tags or fusion partners. Where a name states a change or a piece, a line headed by the entry shows the natural chain unless it says otherwise.
UniProt Q9Y4C8: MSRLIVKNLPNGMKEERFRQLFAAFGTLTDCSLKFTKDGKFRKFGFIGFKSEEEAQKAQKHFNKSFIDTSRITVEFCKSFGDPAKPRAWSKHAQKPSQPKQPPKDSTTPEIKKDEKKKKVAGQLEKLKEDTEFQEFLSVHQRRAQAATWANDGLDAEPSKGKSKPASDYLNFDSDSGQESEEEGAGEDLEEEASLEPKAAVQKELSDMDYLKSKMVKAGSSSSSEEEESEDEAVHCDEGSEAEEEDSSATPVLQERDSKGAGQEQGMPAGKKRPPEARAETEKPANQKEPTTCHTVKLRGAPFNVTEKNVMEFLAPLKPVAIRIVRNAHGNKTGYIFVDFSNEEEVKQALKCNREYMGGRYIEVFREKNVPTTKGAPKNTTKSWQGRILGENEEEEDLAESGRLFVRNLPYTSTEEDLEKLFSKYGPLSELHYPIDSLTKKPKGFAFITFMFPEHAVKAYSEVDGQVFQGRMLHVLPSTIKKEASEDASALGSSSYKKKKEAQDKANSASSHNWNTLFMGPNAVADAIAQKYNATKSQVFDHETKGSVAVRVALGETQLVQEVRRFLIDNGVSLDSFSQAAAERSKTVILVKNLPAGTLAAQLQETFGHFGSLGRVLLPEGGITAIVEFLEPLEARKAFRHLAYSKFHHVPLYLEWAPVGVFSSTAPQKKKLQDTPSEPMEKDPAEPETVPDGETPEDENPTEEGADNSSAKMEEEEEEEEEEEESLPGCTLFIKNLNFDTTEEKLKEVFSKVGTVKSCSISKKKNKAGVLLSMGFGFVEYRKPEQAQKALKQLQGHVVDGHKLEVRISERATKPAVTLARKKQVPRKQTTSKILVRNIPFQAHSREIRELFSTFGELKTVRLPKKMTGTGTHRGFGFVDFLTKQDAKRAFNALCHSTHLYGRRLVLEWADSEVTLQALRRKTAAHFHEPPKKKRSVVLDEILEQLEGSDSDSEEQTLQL
UniProt Q8WWW0: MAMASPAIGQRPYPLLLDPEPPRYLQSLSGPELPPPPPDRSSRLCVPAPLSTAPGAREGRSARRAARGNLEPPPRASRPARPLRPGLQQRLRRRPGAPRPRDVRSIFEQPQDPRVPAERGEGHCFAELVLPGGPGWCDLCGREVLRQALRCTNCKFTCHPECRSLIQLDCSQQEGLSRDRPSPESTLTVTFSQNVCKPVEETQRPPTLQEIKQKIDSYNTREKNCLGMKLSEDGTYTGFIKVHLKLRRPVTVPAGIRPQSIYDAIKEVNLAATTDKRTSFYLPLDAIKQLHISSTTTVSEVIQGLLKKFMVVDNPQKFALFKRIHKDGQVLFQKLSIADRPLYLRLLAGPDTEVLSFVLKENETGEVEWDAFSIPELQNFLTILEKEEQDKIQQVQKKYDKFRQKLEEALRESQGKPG
UniProt O15258: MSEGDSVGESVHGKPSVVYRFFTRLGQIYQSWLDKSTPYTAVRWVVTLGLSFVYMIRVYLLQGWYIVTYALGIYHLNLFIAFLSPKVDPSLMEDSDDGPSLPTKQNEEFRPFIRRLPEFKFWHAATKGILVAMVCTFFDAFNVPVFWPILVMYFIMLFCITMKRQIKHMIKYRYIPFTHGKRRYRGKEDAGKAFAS
UniProt Q9Y580: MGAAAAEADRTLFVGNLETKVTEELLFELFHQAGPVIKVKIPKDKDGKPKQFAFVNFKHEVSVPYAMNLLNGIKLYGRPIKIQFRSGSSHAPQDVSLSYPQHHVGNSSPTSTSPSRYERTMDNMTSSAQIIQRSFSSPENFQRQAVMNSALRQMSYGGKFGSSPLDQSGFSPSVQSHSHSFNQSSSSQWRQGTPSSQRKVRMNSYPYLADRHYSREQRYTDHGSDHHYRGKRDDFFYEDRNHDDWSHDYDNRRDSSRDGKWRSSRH
UniProt Q06330: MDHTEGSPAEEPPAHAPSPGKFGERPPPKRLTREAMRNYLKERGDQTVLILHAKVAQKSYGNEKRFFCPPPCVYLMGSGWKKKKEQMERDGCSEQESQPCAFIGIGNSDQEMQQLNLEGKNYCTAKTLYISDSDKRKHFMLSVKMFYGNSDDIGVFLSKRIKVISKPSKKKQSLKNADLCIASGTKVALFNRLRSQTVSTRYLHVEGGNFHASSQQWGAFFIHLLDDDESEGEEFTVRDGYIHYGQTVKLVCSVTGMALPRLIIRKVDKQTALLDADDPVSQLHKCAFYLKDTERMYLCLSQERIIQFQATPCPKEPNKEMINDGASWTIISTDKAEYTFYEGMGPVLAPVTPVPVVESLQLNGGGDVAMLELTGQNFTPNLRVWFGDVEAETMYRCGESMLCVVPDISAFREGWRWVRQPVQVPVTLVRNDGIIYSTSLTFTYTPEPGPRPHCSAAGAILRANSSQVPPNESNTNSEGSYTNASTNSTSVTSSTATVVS
UniProt Q2KHR2: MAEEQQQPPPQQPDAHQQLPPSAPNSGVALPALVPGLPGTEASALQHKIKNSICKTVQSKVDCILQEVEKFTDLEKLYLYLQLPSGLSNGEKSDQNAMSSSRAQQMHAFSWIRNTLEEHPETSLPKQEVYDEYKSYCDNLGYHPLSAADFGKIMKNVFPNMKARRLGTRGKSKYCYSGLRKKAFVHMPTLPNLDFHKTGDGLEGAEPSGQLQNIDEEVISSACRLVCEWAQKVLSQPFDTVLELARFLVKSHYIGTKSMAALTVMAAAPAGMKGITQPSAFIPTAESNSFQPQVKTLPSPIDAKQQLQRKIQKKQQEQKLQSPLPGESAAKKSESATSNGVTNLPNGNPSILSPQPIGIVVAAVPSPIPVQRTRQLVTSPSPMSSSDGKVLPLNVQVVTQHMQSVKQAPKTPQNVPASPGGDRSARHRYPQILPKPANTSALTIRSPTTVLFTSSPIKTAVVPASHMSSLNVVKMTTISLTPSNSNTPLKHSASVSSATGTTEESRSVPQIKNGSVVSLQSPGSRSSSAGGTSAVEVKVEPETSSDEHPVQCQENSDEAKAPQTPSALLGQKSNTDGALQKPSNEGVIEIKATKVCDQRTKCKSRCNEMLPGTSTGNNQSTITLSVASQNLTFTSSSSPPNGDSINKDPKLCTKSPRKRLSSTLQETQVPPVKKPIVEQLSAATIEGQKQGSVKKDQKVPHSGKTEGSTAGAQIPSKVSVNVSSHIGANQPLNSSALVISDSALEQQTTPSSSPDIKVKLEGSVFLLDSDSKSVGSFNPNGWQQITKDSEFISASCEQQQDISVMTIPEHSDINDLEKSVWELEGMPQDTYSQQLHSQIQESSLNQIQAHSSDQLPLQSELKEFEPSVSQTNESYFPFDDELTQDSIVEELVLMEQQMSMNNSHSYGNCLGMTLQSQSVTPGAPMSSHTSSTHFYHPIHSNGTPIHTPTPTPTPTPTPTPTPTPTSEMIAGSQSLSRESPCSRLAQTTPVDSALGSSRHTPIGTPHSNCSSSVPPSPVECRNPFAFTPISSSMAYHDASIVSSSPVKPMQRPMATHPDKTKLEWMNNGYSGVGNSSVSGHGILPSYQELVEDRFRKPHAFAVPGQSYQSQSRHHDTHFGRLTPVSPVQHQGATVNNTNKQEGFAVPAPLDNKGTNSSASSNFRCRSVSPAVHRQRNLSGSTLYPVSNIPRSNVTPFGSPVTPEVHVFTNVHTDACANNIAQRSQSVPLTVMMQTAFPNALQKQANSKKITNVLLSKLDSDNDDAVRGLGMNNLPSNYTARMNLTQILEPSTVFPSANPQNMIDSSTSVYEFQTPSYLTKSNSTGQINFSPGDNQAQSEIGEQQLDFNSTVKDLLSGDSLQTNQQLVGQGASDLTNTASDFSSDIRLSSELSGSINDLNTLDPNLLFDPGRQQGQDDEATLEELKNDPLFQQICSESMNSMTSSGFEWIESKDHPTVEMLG
UniProt P49756, whole entry, looked up: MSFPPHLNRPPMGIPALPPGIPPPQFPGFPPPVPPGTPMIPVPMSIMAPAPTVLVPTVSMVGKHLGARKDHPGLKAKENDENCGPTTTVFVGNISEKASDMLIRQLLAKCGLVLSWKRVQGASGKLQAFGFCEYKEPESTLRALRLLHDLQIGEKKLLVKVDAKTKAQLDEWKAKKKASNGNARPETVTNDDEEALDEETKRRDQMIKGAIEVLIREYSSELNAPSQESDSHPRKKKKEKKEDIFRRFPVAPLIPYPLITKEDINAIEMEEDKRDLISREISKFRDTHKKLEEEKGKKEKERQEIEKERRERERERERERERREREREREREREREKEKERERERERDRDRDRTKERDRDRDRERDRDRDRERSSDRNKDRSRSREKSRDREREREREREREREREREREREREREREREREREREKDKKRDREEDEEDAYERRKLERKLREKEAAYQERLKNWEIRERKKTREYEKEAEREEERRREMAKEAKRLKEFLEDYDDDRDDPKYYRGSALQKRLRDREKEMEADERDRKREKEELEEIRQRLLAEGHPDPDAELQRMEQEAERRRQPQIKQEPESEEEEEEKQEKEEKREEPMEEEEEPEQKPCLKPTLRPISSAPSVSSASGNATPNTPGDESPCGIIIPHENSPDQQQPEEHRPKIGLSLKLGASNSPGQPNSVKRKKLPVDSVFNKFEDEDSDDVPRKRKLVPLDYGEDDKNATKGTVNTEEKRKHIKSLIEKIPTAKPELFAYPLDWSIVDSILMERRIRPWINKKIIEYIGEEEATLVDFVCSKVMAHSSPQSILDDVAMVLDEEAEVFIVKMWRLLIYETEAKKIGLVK
UniProt Q969G6: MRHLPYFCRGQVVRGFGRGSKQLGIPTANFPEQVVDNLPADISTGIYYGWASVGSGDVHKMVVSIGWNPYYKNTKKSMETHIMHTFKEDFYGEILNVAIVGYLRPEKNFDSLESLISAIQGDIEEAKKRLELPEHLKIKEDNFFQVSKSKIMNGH
UniProt Q96AA3: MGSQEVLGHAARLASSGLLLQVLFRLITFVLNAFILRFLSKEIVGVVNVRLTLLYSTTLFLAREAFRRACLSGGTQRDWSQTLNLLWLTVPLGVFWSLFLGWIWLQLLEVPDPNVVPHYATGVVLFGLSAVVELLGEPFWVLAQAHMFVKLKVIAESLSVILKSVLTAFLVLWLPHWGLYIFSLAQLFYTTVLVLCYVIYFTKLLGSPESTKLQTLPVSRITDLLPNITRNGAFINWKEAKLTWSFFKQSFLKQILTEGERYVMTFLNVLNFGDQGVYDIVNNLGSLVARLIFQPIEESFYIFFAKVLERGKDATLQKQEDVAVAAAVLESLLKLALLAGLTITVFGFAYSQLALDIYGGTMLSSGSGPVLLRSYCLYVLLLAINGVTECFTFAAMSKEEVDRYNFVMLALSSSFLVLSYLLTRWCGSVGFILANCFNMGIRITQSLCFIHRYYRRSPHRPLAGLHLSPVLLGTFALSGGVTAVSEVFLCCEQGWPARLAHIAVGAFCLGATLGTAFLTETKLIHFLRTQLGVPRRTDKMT
UniProt O00287: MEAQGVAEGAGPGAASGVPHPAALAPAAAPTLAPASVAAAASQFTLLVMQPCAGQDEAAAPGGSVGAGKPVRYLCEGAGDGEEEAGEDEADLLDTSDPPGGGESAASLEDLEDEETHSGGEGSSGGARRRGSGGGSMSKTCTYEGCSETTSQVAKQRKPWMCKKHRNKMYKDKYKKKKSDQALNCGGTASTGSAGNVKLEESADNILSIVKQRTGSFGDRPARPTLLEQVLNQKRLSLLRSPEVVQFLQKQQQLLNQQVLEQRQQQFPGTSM
UniProt Q15291, whole entry, looked up: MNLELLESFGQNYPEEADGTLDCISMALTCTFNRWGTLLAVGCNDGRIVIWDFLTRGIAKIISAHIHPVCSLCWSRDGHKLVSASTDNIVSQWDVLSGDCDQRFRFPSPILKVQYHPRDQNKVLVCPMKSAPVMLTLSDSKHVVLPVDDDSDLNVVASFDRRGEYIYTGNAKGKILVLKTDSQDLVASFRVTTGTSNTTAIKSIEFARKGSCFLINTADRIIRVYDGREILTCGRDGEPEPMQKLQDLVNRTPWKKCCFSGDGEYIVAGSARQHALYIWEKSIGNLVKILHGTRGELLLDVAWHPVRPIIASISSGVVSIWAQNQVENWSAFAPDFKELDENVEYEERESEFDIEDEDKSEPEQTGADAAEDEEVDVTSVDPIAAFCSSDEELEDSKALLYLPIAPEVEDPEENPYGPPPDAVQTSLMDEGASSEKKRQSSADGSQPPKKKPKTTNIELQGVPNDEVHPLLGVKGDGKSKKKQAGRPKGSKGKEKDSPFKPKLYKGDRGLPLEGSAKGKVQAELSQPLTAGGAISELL
UniProt Q9Y2P8: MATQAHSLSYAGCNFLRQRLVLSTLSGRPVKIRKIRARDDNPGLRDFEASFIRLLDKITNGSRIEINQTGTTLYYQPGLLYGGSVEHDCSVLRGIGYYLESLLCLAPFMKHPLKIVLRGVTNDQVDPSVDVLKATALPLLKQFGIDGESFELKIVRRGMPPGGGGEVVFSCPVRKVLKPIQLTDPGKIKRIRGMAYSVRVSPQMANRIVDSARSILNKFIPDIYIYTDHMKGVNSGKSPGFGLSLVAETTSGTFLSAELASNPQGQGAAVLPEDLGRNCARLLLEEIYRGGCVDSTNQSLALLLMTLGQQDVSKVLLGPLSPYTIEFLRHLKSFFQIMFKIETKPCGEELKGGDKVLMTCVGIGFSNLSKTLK

Experiments:
Assay in all cases: log2 fold change, soluble protein after heating vs DMSO (PISA); higher = thermal stabilisation; K562 lysate, 10 uM; active = over 0.2 and 3.5 SD of the protein, either way, in both replicates (recomputed)
[1] = compound: CN1CC[C@H](c2c(O)cc(O)c3c(=O)cc(-c4ccccc4Cl)oc23)[C@H](O)C1 [alvocidib]
In short: (§1)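 To prepare the extract, K562 pellets were dounce-homogenised in PBS pH 7.4 with 1 mM MgCl2, giving crude material at 1 mg/mL protein. This was treated with 10 μM compound for 30 min, then heated in aliquots for 3 min over 48°C-58°C before pooling and addition of NP-40 to 0.5% at 4°C. Centrifugation at 21,000xg for 90 min left soluble protein in the supernatant, which TMTpro 16plex LC-MS/MS quantified with equalised channel sums. Results are log-two fold changes in thermal stability compared with solvent controls, from duplicates.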

[2] = compound: CN1CCc2c(c3ccccc3n2Cc2ccc(C(=O)NO)cc2)C1 [Tubastatin A]
In short: as §1

[3] = compound: CNC(=O)C1=CC=CC=C1NC2=NC(=NC=C2Cl)NC3=C(C=C(C=C3)N4CCOCC4)OC
In short: as §1

[4] = compound: CNC(=O)c1ccc(Nc2ncc(C(F)(F)F)c(NCc3nccnc3N(C)S(C)(=O)=O)n2)cc1 [defactinib]
In short: as §1

[5] = compound: CNc1nc(-c2ccc3c(N)n[nH]c3c2)cc(N2C[C@@H](C(=O)NC3CCCCC3)CC[C@H]2C)n1
In short: as §1

[6] = compound: COC(=O)N[C@@H](C)CNc1nccc(-c2cn(C(C)C)nc2-c2cc(Cl)cc(NS(C)(=O)=O)c2F)n1 [encorafenib]
In short: as §1

[7] = compound: COC(=O)[C@H](CCSC)NC(=O)C1=C(C=C(C=C1)NC[C@H](CS)N)C2=CC=CC=C2
In short: as §1

[8] = compound: COc1cc(Nc2ncc3c(n2)-c2ccc(Cl)cc2C(c2c(F)cccc2OC)=NC3)ccc1C(=O)O [alisertib]
In short: as §1

[9] = compound: COc1cc2nc(-c3cc(F)ccc3O)nc(N[C@@H]3CNC[C@H]3C(C)(C)O)c2cc1OC
In short: as §1

[10] = compound: COc1cc2ncnc(Nc3ccc(F)c(Cl)c3)c2cc1OCCCN1CCOCC1 [gefitinib]
In short: as §1

[11] = compound: CS(=O)(=O)CCNCc1ccc(-c2ccc3ncnc(Nc4ccc(OCc5cccc(F)c5)c(Cl)c4)c3c2)o1 [lapatinib]
In short: as §1

[12] = compound: CS(=O)(=O)N1CCN(Cc2cc3nc(-c4cccc5[nH]ncc45)nc(N4CCOCC4)c3s2)CC1 [pictilisib]
In short: as §1

[13] = compound: C[C@@H](Oc1cc(-c2cnn(C3CCNCC3)c2)cnc1N)c1c(Cl)ccc(F)c1Cl [crizotinib]
In short: as §1

[14] = compound: C[C@H](C1=CC=C(C=C1)C(=O)NC2=C3C=CNC3=NC=C2)N
In short: as §1

[15] = compound: C[C@H](Nc1ncnc2nc[nH]c12)c1cc2cccc(Cl)c2c(=O)n1-c1ccccc1 [duvelisib]
In short: as §1

[16] = compound: Cc1cc(Nc2cc(CN3CCOCC3)c3nc(C)c(Cc4ccc(Cl)cc4F)n3n2)n[nH]1 [gandotinib]
In short: as §1

[17] = compound: Cc1cc(Nc2cc(N3CCN(C)CC3)nc(Sc3ccc(NC(=O)C4CC4)cc3)n2)n[nH]1 [tozasertib]
In short: as §1

[18] = compound: Cc1ccc(-n2nc(C(C)(C)C)cc2NC(=O)Nc2ccc(OCCN3CCOCC3)c3ccccc23)cc1 [doramapimod]
In short: as §1

[19] = compound: Cc1ccc(NC(=O)c2ccc(CN3CC[C@H](N(C)C)C3)c(C(F)(F)F)c2)cc1Nc1nccc(-c2cncnc2)n1 [bafetinib]
In short: as §1

[20] = compound: Cc1cccc(CC(=O)N2CCc3c2ccc(-c2cn(C)c4ncnc(N)c24)c3F)n1
In short: as §1

Measured: log2 fold change

RBM19 (UniProt Q9Y4C8)
inactive: [1] -0.042 | [2] 0.06 | [3] -0.038 | [4] 0.032 | [5] 0.035 | [6] -0.007 | [7] 0.035 | [8] 0.004 | [9] 0.008 | [10] 0.013 | [11] -0.106 | [12] -0.106 | [13] 0.016 | [14] -0.081 | [15] -0.07 | [16] 0.044 | [17] 0.093 | [18] -0.027 | [19] -0.035 | [20] 0.048

RASSF5 (UniProt Q8WWW0)
inactive: [1] 0.006 | [2] 0.038 | [3] 0.099 | [4] 0.069 | [5] -0.041 | [6] -0.019 | [7] -0.066 | [8] -0.037 | [9] 0.112 | [10] -0.052 | [11] -0.018 | [12] -0.068 | [13] 0.06 | [14] -0.019 | [15] 0.057 | [16] 0.245 | [17] 0.09 | [18] -0.056 | [19] 0.091 | [20] 0.086

RER1 (UniProt O15258)
inactive: [1] -0.091 | [2] 0.006 | [3] 0.01 | [4] 0.042 | [5] 0.044 | [6] 0.047 | [7] -0.013 | [8] -0.004 | [9] 0.004 | [10] -0.018 | [11] 0.001 | [12] -0.012 | [13] -0.006 | [14] -0.128 | [15] 0.004 | [16] 0.029 | [17] 0.026 | [18] -0.044 | [19] -0.007 | [20] 0.023

RBM7 (UniProt Q9Y580)
inactive: [1] 0.026 | [2] -0.204 | [3] 0.034 | [4] 0.023 | [5] -0.051 | [6] 0.037 | [7] 0.073 | [8] -0.027 | [9] 0.007 | [10] -0.031 | [11] -0.004 | [12] -0.065 | [13] -0.03 | [14] 0.038 | [15] -0.054 | [16] -0.012 | [17] 0.06 | [18] -0.025 | [19] 0.04 | [20] -0.007

RBPJ (UniProt Q06330)
inactive: [1] 0.01 | [2] 0.044 | [3] 0.005 | [4] 0.052 | [5] -0.002 | [6] -0.002 | [7] 0.002 | [8] -0.013 | [9] 0.01 | [10] 0.039 | [11] -0.005 | [12] -0.077 | [13] -0.009 | [14] -0.004 | [15] 0.039 | [16] -0.027 | [17] 0.023 | [18] 0.046 | [19] -0.011 | [20] -0.023

RFX7 (UniProt Q2KHR2)
inactive: [1] 0.028 | [2] -0.044 | [3] -0.038 | [4] 0.132 | [5] 0.024 | [6] 0.167 | [7] 0.037 | [8] -0.081 | [9] 0.159 | [10] 0.005 | [11] 0.045 | [12] -0.017 | [13] -0.021 | [14] -0.002 | [15] 0.038 | [16] -0.194 | [17] 0.107 | [18] -0.031 | [19] 0.03 | [20] 0.051

RARS (UniProt P54136)
inactive: [1] 0.032 | [2] -0.1 | [3] -0.006 | [4] 0.024 | [5] -0.035 | [6] -0.001 | [7] 0.128 | [8] 0.026 | [9] -0.009 | [10] -0.023 | [11] 0.003 | [12] 0.019 | [13] -0.047 | [14] 0.039 | [15] -0.018 | [16] -0.078 | [17] 0.019 | [18] 0.042 | [19] -0.029 | [20] 0.041

RBM25 (UniProt P49756)
inactive: [1] -0.046 | [2] 0.071 | [3] -0.014 | [4] -0.009 | [5] 0.02 | [6] 0.046 | [7] 0.008 | [8] 0.031 | [9] -0.014 | [10] 0.005 | [11] -0.027 | [12] 0.035 | [13] 0.024 | [14] -0.007 | [15] -0.052 | [16] 0.048 | [17] 0.015 | [18] 0.134 | [19] -0.013 | [20] 0.038

REEP6 (UniProt Q96HR9)
inactive: [1] -0.089 | [2] 0.045 | [3] 0.02 | [4] 0.056 | [5] -0.013 | [6] 0.076 | [7] -0.025 | [8] 0.032 | [9] -0.036 | [10] -0.175 | [11] 0.066 | [12] 0.047 | [13] -0.04 | [14] -0.269 | [15] -0.006 | [16] 0.056 | [17] 0.097 | [18] 0.052 | [19] -0.031 | [20] 0.078

RFK (UniProt Q969G6)
inactive: [1] 0.011 | [2] 0.001 | [3] 0.007 | [4] 0.006 | [5] -0.143 | [6] 0.007 | [7] -0.019 | [8] 0.004 | [9] 0.047 | [10] 0.022 | [11] -0.005 | [12] 0.003 | [13] 0.031 | [14] -0.053 | [15] 0.048 | [16] 0.082 | [17] -0.078 | [18] 0.022 | [19] -0.084 | [20] -0.004

RFT1 (UniProt Q96AA3)
inactive: [1] 0.001 | [2] -0.042 | [3] 0.013 | [4] -0.057 | [5] 0.015 | [6] 0.093 | [7] -0.066 | [8] -0.025 | [9] 0.05 | [10] 0.076 | [11] -0.008 | [12] 0.01 | [13] -0.003 | [14] 0.006 | [15] -0.025 | [16] -0.03 | [17] 0.121 | [18] 0.078 | [19] 0.055 | [20] -0.002

RFXAP (UniProt O00287)
inactive: [1] -0.12 | [2] 0.013 | [3] -0.012 | [4] -0.08 | [5] -0.01 | [6] 0.011 | [7] -0.013 | [8] 0.071 | [9] 0.142 | [10] 0.061 | [11] -0.061 | [12] -0.064 | [13] 0.036 | [14] -0.073 | [15] -0.05 | [16] 0.152 | [17] 0.097 | [18] -0.024 | [19] 0.066 | [20] 0.057

RBBP5 (UniProt Q15291)
inactive: [1] 0.003 | [2] -0.012 | [3] 0.018 | [4] 0.003 | [5] -0.036 | [6] 0.009 | [7] -0.083 | [8] -0.027 | [9] -0.004 | [10] -0.008 | [11] -0.01 | [12] 0.004 | [13] 0.016 | [14] 0.033 | [15] -0.041 | [16] 0.015 | [17] 0.002 | [18] 0.017 | [19] 0 | [20] -0.014

Pulled one by one from the list above, two records:
RARS (UniProt P54136)
inactive: [1] 0.032 | [2] -0.1 | [3] -0.006 | [4] 0.024 | [5] -0.035 | [6] -0.001 | [7] 0.128 | [8] 0.026 | [9] -0.009 | [10] -0.023 | [11] 0.003 | [12] 0.019 | [13] -0.047 | [14] 0.039 | [15] -0.018 | [16] -0.078 | [17] 0.019 | [18] 0.042 | [19] -0.029 | [20] 0.041

RER1 (UniProt O15258)
inactive: [1] -0.091 | [2] 0.006 | [3] 0.01 | [4] 0.042 | [5] 0.044 | [6] 0.047 | [7] -0.013 | [8] -0.004 | [9] 0.004 | [10] -0.018 | [11] 0.001 | [12] -0.012 | [13] -0.006 | [14] -0.128 | [15] 0.004 | [16] 0.029 | [17] 0.026 | [18] -0.044 | [19] -0.007 | [20] 0.023

Continued:

RBM12 (UniProt Q9NTZ6)
inactive: [1] -0.023 | [2] 0.021 | [3] -0.023 | [4] -0.002 | [5] 0.001 | [6] 0.011 | [7] -0.055 | [8] 0.01 | [9] 0.006 | [10] -0.025 | [11] 0.008 | [12] -0.02 | [13] 0.012 | [14] -0.014 | [15] 0.01 | [16] -0.027 | [17] -0.024 | [18] 0.003 | [19] 0.016 | [20] 0.006

RCL1 (UniProt Q9Y2P8)
inactive: [1] -0.041 | [2] -0.073 | [3] 0.005 | [4] 0.01 | [5] -0.03 | [6] 0.014 | [7] 0.032 | [8] -0.006 | [9] 0.01 | [10] 0.051 | [11] -0.041 | [12] 0.033 | [13] -0.041 | [14] -0.073 | [15] 0.006 | [16] -0.028 | [17] -0.013 | [18] 0.029 | [19] -0.027 | [20] 0.113
